From PMC7555382 come the findings set out here.

Protein sequences, listed by entry. Tags and fused reporters are not part of them. Residues count along the entry.
UniProt P30532, residues 23-468: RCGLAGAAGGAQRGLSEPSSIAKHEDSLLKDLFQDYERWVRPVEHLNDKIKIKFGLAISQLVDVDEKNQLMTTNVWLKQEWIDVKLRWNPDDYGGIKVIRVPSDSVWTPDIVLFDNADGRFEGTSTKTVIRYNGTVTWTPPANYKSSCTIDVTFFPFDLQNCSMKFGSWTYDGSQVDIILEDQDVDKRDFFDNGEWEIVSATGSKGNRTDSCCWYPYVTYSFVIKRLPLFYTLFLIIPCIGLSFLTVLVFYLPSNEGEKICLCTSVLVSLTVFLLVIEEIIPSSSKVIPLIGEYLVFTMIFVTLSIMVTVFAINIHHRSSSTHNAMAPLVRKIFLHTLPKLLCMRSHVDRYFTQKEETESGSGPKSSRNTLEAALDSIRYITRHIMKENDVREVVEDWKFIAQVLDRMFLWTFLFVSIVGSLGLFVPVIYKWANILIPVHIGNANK

Assay [1] deals with His-tagged wild-type EGFR (epidermal growth factor receptor) (UniProt P00533). As to the kind of experiment: co-IP; HEK293T, A549 or H1975 cells transfected with His-EGFR WT and HA-α5; lysates immunoprecipitated with anti-His or anti-HA (in Figure 3D anti-EGFR or anti-α5) antibodies, western blot; also after 8 h serum starvation and 1 h EGF or nicotine, which enhanced the association.

Assay [2] has as its target HA-tagged nAChR α5 (nicotinic acetylcholine receptor subunit α5) (UniProt P30532). The assay is described as above.
The target in assay [3] is endogenous EGFR of A549 cells (EGFR wild-type) (human (endogenous in A549)) (UniProt P00533). The experiment in a line: co-IP; lysates of untransfected A549 and H1975 cells immunoprecipitated with anti-α5 or anti-EGFR antibodies, western blot; A549 also after 8 h serum starvation and 1 h EGF or nicotine, which enhanced the association. On the technique in general: Immunoblotting shows a protein as a band on a membrane.

These are yes or no findings as the source states them, for the method shown. In cells and extracts the contact can be indirect. Some results given as binding are weak or reduced against the parent protein; the word gives no strength.

For the substance “HA-tagged nAChR α5 (nicotinic acetylcholine receptor subunit α5) (from UniProt P30532 23-468)”, the binding entry in assay [1] is recorded as “binds”.

With “His-tagged wild-type EGFR (epidermal growth factor receptor) (from UniProt P00533 25-1210)”, the binding result in assay [2] is recorded as “binds”. Take “endogenous α5-nAChR (nicotinic acetylcholine receptor subunit α5) (from UniProt P30532 23-468)”: the binding entry in assay [3] was “binds”.
